Test results as given in PMC7998230.
These are yes or no findings as the source states them, for the method shown. Some results given as binding are weak or reduced against the parent protein; the word gives no strength.

Biological target: T1, α2A-adrenergic receptor (mouse (endogenous in STHdh cells and R6/2 mouse brain)), Q01338
T1 chain: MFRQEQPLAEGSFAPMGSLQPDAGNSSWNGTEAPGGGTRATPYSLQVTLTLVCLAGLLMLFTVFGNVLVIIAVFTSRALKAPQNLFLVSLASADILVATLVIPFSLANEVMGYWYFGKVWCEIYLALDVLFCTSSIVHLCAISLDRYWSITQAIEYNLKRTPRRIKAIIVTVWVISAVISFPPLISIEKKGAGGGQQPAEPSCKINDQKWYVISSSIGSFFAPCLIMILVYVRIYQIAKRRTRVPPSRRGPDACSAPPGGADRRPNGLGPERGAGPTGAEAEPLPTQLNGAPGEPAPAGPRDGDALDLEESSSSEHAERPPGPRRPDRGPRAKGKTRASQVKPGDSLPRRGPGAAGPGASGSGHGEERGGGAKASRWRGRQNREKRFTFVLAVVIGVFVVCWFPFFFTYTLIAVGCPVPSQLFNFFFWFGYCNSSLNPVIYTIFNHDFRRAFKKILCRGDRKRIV
Experiment: denaturing SDS-PAGE and Western blot (band size); RIPA lysates of STHdh cells and mouse brain homogenates, 30 µg protein, Bolt 4-12% Bis-Tris gels with MES running buffer; anti-α2A-AR antibody; monomer approx. 55 kDa, dimer band >100 kDa
Settings: remark: other sources report otherwise

B1: α2A-adrenergic receptor, Q01338 1-465 (receptor)
chain: T1 chain
binding: binds
